Patent US20100099710A1, “SRC FAMILY KINASE INHIBITORS” (priority 2007, published 2010)

Amino acid sequences for entries named in this document (tags omitted).
UniProt P04049, whole entry: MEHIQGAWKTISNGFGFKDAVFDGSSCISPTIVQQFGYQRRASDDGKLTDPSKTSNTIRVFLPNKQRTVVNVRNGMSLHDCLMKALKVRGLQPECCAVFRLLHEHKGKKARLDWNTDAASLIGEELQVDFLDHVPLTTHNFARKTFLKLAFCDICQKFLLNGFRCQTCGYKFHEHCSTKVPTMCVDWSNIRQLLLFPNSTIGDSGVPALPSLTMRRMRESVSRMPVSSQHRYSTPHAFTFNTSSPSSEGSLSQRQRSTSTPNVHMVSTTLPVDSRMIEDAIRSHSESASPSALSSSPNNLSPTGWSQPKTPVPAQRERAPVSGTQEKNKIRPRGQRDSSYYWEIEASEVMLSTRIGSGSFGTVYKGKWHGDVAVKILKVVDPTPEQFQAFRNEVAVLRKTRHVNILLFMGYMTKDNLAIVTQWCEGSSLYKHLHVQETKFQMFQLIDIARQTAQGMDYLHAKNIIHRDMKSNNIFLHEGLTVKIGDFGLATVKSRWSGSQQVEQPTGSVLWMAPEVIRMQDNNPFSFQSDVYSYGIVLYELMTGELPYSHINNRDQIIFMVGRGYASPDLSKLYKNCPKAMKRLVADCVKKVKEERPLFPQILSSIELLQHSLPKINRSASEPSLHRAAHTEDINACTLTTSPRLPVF

Molecular target: Raf-1 (Homo sapiens, UniProt P04049)
Experiment: Kinase screen, recombinant kinase, [γ-33P-ATP] filter assay
Description: Compound 6 was tested in vitro at the concentration of 1 μM with 204 kinases from a screening panel including 70 tyrosine kinases (both receptor tyrosine kinases and protein tyrosine kinases) and 134 serine/threonine kinases. Each recombinant kinase (5-10 mU) was incubated with [γ-33P-ATP], protein substrate, compound, and the reaction initiated by the addition of MgATP. After incubation for 40 minutes, the reaction was stopped by the addition of 5 μL of a 3% phosphoric acid solution. 10 μL of the reaction was then spotted onto a P30 filtermat and washed three times for 5 minutes in 75 mM phosphoric acid and once in methanol prior to drying and scintillation counting. The final concentration of ATP in the assay was 10 μM.

CNC(=O)Nc1cc(CNc2ccccc2C(=O)NOCC2CCCC2)ccn1
IC50: 0.014 µM
inhibition of Raf-1 (concentration of 1 μM): 91%

The match of structure and compound is tentative.
